According to patent US20070050862A1, “Promoter and methods of use in plants” (priority 2005, published 2007):

System: Arabidopsis roots
Assay: Root growth, morphology and gravity response of seedlings on hormone-supplemented media
Type: in vivo, Arabidopsis thaliana

Compound | Root morphology compared to control plates (10 days on MS plates containing 10 μM ACC) | Direction of root growth on horizontal plates (gravitropic response) (plates supplemented with 1 μM NPA, control roots penetrated the agar)
NC1(C(=O)O)CC1 [ACC, 1 aminocyclo-propane-1 carboxylic acid] | significantly shorter, more branched and had a considerable increase in root hair density | –
O=C(O)c1ccccc1C(=O)Nc1cccc2ccccc12 [NPA, N-1-naphthylphthalamic acid] | – | grew along the surface of the agar
